In data set [1] the target is IL-21 (interleukin-21) (Homo sapiens) (UniProt Q9HBE4). Kind of data set: activity in cells. To be noted: purified recombinant protein.
The target is the same in data set [2]. The experiment in a line: SPR. The conditions noted are these: purified recombinant protein, protein details: PeproTech, SEQ:44 is the 162 aa listing entry.
Data set [3] shares this target. Kind of data set: inhibition of the protein. The conditions noted are these: 2'-F all pyrimidines, 2'-OH purines; purified recombinant protein; protein details: PeproTech, SEQ:44 is the 162 aa listing entry; dose not given here.
Where [4] appears, read: 2'-F all pyrimidines, 10 nM aptamer, binding not measured, protein details: PeproTech, SEQ:44 is the 162 aa listing entry, variant of SEQ5 37mer.
[5] abbreviates: 2'-F all pyrimidines, +, cell inhibition 10.7% at 10 nM, variant of SEQ5 37mer.
The mark [6] stands for this setting: 2'-F pyrimidines, 10 nM aptamer, scored −, protein details: Peprotech, variant of SEQ5 37mer, counted as no effect.

The chains behind the UniProt entries cited, without tags or fusion partners. Residues count along the entry.
UniProt Q9HBE4, 25-162: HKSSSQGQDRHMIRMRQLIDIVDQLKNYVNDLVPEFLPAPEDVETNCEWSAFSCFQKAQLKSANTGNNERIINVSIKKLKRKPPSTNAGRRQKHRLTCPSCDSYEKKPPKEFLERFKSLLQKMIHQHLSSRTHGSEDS

For some assays here: The comparison behind a weaker result is the experiment's own reference, which may not be listed here. For some assays here: Construct, isoform or probe ends are uncertain for at least one entry.

In general, IC50 refers to the point on the concentration scale where inhibition reaches its midpoint.

For “GGACCUCAACACGCGACUACUCGUGAUUGCCCGUCC [SEQ10]”, in data set [1] (setting [4]), the functional effect of the aptamer is -4.2 % inhibition.
On the same count and under the same terms, with “GGACCUUCAACACGCACUACUCGUGAUUGCCCGUCC [SEQ12]” the figure was -7.6 % inhibition.
Turning to “GGACCUUCAACACGCGACACUCGUGAUUGCCCGUCC [SEQ15]”, the binding result in data set [2] (setting [5]) is given as “binds more weakly”.
As for “GGACCUUCAACACGCGACUACCGUGAUUGCCCGUCC [SEQ18]”, in data set [1] (setting [4]), the functional effect of the aptamer was -6.5 % inhibition.
Take “GGACCUUCAACACGCGACUACUCGUGAUUGCCCGUCC [SEQ5(12)]”: the functional effect of the aptamer in data set [1] (2'-OMe C18, 2'-F other pyrimidines, 3' idT, 1 nM aptamer, 9.5% at 0.2 nM, rated -, protein details: PeproTech, SEQ:44 is the 162 aa listing entry, variant of SEQ5 37mer) amounted to 20.1 % inhibition.
In the case of “GGACCUUCAACACGCGACUACUCGUGAUUGCCGUCC [SEQ19]”, the functional effect of the aptamer in data set [1] (setting [4]) is -9.8 % inhibition.
As for “GGACCUUCAACACGCGACUAUCGUGAUUGCCCGUCC [SEQ17]”, the functional effect of the aptamer in data set [1] (setting [6]) was found to be 7.4 % inhibition.
Regarding “GGACCUUCAACACGCGACUCUCGUGAUUGCCCGUCC [SEQ16]”, the binding result in data set [2] (setting [5]) was “binds more weakly”.
As to “GGACCUUCAACACGCGAUACUCGUGAUUGCCCGUCC [SEQ14]”, in data set [2] (2'-F all pyrimidines, +, cell inhibition 13.3% at 10 nM, variant of SEQ5 37mer), the binding result is on record as “binds more weakly”.
Turning to “GGACCUUCAACACGCGCUACUCGUGAUUGCCCGUCC [SEQ13]”, in data set [1] (setting [4]), the functional effect of the aptamer was -14 % inhibition.
“GGACCUUCAACACGCGGCUACUCGUGAUUGCCCGUCC [SEQ22(9)]”: the binding result in data set [2] (as SEQ22(2) with U6,C8,C23 2'-OMe instead of 2'-F, + (range as defined for Table 2), cell inhibition 84.4% at 1 nM, 50.0% at 0.2 nM, variant of SEQ22(2)) is recorded as “binds more weakly”.
Regarding “GGACCUUCAACACGCGGCUACUCGUGAUUGCCCGUCC [SEQ22(10)]”, the binding result in data set [2] (as SEQ22(2) with U6,C8,C23,G16 2'-OMe, + (range as defined for Table 2), cell inhibition 70.2% at 1 nM, 29.1% at 0.2 nM, variant of SEQ22(9)) is given as “binds more weakly”.
Turning to “GGACCUUCAACACGCGGCUACUCGUGAUUGCCCGUCC [SEQ22(11)]”, in data set [1] (as SEQ22(10) plus 2'-OMe C5,U7, 3'-idT, 1 nM aptamer, protein details: Peprotech, variant of SEQ22(10), counted as no effect), the functional effect of the aptamer was -11.5 % inhibition.
For “GGACCUUCAACACGGACUACUCGUGAUUGCCCGUCC [SEQ11]”, the functional effect of the aptamer in data set [1] (setting [4]) was -1 % inhibition.
“GGACCUUCAACCCGCGGCUACUCGGGAUUGCCCGUCC [SEQ37]”: the IC50 in data set [1] (2'-F C5,U6,U7,C8,C15,C18,U19,U22,C23,C33, 2'-OH G16,G17, 2'-OMe all others, 3' idT, IFN-gamma secretion from NK92 cells stimulated with human IL-21, protein details: PeproTech, SEQ:44 is the 162 aa listing entry, variant of SEQ28) stood at 0.02 nM.
On to “GGACUUCAACACGCGACUACUCGUGAUUGCCCGUCC [SEQ9]”, for which the functional effect of the aptamer in data set [1] (setting [4]) was -6.4 % inhibition.
With “GGACUUCAACACGCGACUACUCGUGAUUGCCCUCC [SEQ8]”, the functional effect of the aptamer in data set [1] (2'-F all pyrimidines, 10 nM aptamer, binding not measured, protein details: PeproTech, SEQ:44 is the 162 aa listing entry, variant of SEQ7 35mer) turned out to be 8.3 % inhibition.
“GGCAACACGCGACUACUCGUGAUUGCC [SEQ6 27mer]”: the functional effect of the aptamer in data set [1] (setting [6]) came out at 15.5 % inhibition.
As for “GGGAAGCUCCGUCGAGCUUUCCUGCAUAAGCUGUAUUGCAGCCAGCAUUUAUUGUACGCCUGCGUAGCUCCU [SEQ50 negative control 72mer]”, the functional effect of the aptamer in data set [1] (negative control, protein details: PeproTech, SEQ:44 is the 162 aa listing entry, dose not given here, counted as no effect) was -7.5 % inhibition.
For “GGGAGAAGAACCUUCAACACGCGACUACUCGUGAUUGCCCGUUCUGAGCCCAGACGCUCUGCGCU [SEQ1 65mer]”, in data set [3], the “functional effect of the aptamer” value was “active”.
